In paper PMC12594604:

Biological target: T1, HA-tagged WT full-length IGFBP6 (Lenti-HA-IGFBP6) (UniProt P47880)
T1 sequence: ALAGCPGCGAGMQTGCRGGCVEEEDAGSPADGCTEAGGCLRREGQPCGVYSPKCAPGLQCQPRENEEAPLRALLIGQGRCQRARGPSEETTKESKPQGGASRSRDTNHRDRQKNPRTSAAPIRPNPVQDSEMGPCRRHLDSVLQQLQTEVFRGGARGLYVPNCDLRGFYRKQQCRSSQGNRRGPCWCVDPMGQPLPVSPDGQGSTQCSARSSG
Assay: affinity purification with mass spectrometry; co-IP combined with MS of lysates of mouse cardiac fibroblasts transfected with Lenti-HA-IGFBP6 or Lenti-HA-EGFP control (legend: anti-IGFBP6 antibody)

binding: binds
Substance: Tropomyosin 1 (Tpm1), endogenous (from UniProt P58771 1-284)

These are yes or no findings as the source states them, for the method shown. In cells and extracts the contact can be indirect. These calls come from enrichment with a bait or labelling near it, and not all partners need be listed. Tags and fused reporters may be left off the sequences shown.
